Reference: patent US4209439A, “Stabilization of vinyl resins” (priority 1977, dated 1980)

Assays:
[1] = antioxidising power on a vinyl resin, conventional oven at […] C.; parameters: key: The symbol "B" indicates "burnt"; the index "+" signifies that the colour is disposed half-way between the lower unit and the upper half-unit; the index "-" signifies that the colour is between the lower half-unit and the upper unit; >2 means that it is between 2 and 2^+
[2] = photostabilising, flexible vinyl chloride-vinyl acetate copolymer (Example 6); settings: 0.3 part
[3] = static thermostability of polyvinyl chloride, oven at 210° C.; parameters: key: The symbol "B" indicates "burnt"; the index "+" signifies that the colour is disposed half-way between the lower unit and the upper half-unit; the index "-" signifies that the colour is between the lower half-unit and the upper unit; >2 means that it is between 2 and 2^+
[4] = static thermostability of polyvinyl chloride, oven at […] C.; parameters: key: The symbol "B" indicates "burnt"; the index "+" signifies that the colour is disposed half-way between the lower unit and the upper half-unit; the index "-" signifies that the colour is between the lower half-unit and the upper unit; >2 means that it is between 2 and 2^+
[5] = lubricating power, adhesion time on calender-type mixer (Example 32); settings: 0.3 p.c.r.; 165°-170° C.
[6] = equimolecular, 1.55×1^-3 mole, 0 min
[7] = equimolecular, 1.55×1^-3 mole, 6 min
[8] = equimolecular, 1.55×1^-3 mole, 12 min
[9] = equimolecular, 1.55×1^-3 mole, 18 min
[10] = equimolecular, 1.55×1^-3 mole, 24 min
[11] = equimolecular, 1.55×1^-3 mole, 27 min
[12] = equimolecular, 1.55×1^-3 mole, 30 min
[13] = equimolecular, 1.55×1^-3 mole, 33 min
[14] = equimolecular, 1.55×1^-3 mole, 36 min

Cc1cc(C(C)(C)C)c(O)c(C(C)(C)C)c1 [BHT, Di-tert.-2,6-butyl-4-methyl phenol, reference compound]
Coloration ([1]; 0.05, 80 min): B
Coloration ([1]; 0.1, 80 min): B
Coloration ([1]; 0.2, 80 min): B
Coloration ([1]; 0.3, 80 min): B
Coloration ([1]; 0.4, 80 min): B
Coloration ([1]; 0.5, 80 min): B
Coloration ([1]; last pair, concentration not given, 80 min): B

CCCCCCCCOC(=O)C1=C(C)NC(C)=C(C(=O)OCCCCCCCC)C1 [L.28502]
Coloration ([2]; Test B, after 24 hours): 1 degrees Gardner
Coloration ([2]; Test B, time 0): 1 degrees Gardner
colour ([3]; 0.1 p.c.r., 0 min): 2 Gardner
colour ([3]; 0.1 p.c.r., 2 min): 2 Gardner
colour ([3]; 0.1 p.c.r., 4 min): 2 Gardner
colour ([3]; 0.1 p.c.r., 6 min): 2 Gardner
colour ([3]; 0.1 p.c.r., 8 min): 3 Gardner
colour ([3]; 0.1 p.c.r., 10 min): 6 Gardner
colour ([3]; 0.1 p.c.r., 12 min): 11 Gardner
colour ([3]; 0.2 p.c.r., 0 min): 1 Gardner
colour ([3]; 0.2 p.c.r., 2 min): 1 Gardner
colour ([3]; 0.2 p.c.r., 4 min): 1 Gardner
colour ([3]; 0.2 p.c.r., 6 min): 2 Gardner
colour ([3]; 0.2 p.c.r., 8 min): 2 Gardner
colour ([3]; 0.2 p.c.r., 10 min): 3 Gardner
colour ([3]; 0.2 p.c.r., 12 min): 5 Gardner
colour ([4]; 0.3 part, 0 min): 1 Gardner
colour ([4]; 0.3 part, 6 min): 1 Gardner
colour ([4]; 0.3 part, 12 min): 2 Gardner
colour ([4]; 0.3 part, 18 min): 3 Gardner
colour ([4]; 0.3 part, 24 min): 4 Gardner
colour ([4]; 0.3 part, 27 min): 6 Gardner
colour ([4]; 0.3 part, 30 min): 7 Gardner
colour ([4]; 0.3 part, 33 min): 8.5 Gardner
colour ([4]; 0.3 part, 36 min): 9 Gardner
colour ([4]; 0.3 part, 39 min): 11 Gardner
colour ([4]; 0.3 part, 42 min): 15 Gardner

COc1ccc(OC(=O)C2=C(C)NC(C)=C(C(=O)Oc3ccc(OC)cc3)C2)cc1 [L.28541]
Coloration ([2]; Test A, after 24 hours): 4 degrees Gardner
Coloration ([2]; Test A, time 0): 1 degrees Gardner
colour ([3]; Ex. 10, 0.3 part, 0 min): 1 Gardner
colour ([3]; Ex. 10, 0.3 part, 3 min): 1 Gardner
colour ([3]; Ex. 10, 0.3 part, 6 min): 1.5 Gardner
colour ([3]; Ex. 10, 0.3 part, 9 min): 3 Gardner
colour ([3]; Ex. 10, 0.3 part, 12 min): 5 Gardner
colour ([3]; Ex. 10, 0.3 part, 15 min): 11 Gardner
colour ([3]; Ex. 10, 0.3 part, 18 min): B
colour [4, 6]: 1 Gardner
colour [4, 7]: 1 Gardner
colour [4, 8]: 2 Gardner
colour [4, 9]: 7 Gardner
colour [4, 10]: 9 Gardner
colour [4, 11]: 9 Gardner
colour [4, 12]: 10 Gardner
colour [4, 13]: 16 Gardner
colour [4, 14]: B

CC1=C(C(=O)OC(C)C)CC(C(=O)OC(C)C)=C(C)N1 [L.28506]
Coloration ([2]; Test B, after 24 hours): 2 degrees Gardner
Coloration ([2]; Test B, time 0): 1 degrees Gardner
colour ([3]; Ex. 10, 0.3 part, 0 min): 1 Gardner
colour ([3]; Ex. 10, 0.3 part, 3 min): 1 Gardner
colour ([3]; Ex. 10, 0.3 part, 6 min): 2 Gardner
colour ([3]; Ex. 10, 0.3 part, 9 min): 5 Gardner
colour ([3]; Ex. 10, 0.3 part, 12 min): 11 Gardner
colour ([3]; Ex. 10, 0.3 part, 15 min): 19 Gardner
colour ([3]; Ex. 10, 0.3 part, 18 min): B
colour ([4]; 0.3 part, 0 min): 1 Gardner
colour ([4]; 0.3 part, 6 min): 1 Gardner
colour ([4]; 0.3 part, 12 min): 3 Gardner
colour ([4]; 0.3 part, 18 min): 3 Gardner
colour ([4]; 0.3 part, 24 min): 6 Gardner
colour ([4]; 0.3 part, 27 min): 12 Gardner
colour ([4]; 0.3 part, 30 min): 13 Gardner
colour ([4]; 0.3 part, 33 min): 14 Gardner
colour ([4]; 0.3 part, 36 min): 15 Gardner
colour ([4]; 0.3 part, 39 min): 15 Gardner
colour ([4]; 0.3 part, 42 min): 17 Gardner

c1ccc(-c2cc3ccccc3[nH]2)cc1 [2-phenyl indole, reference compound]
Coloration ([2]; Test A, after 24 hours): 6 degrees Gardner
Coloration ([2]; Test A, time 0): 1 degrees Gardner
Coloration ([2]; Test B, after 24 hours): 8 degrees Gardner
Coloration ([2]; Test B, time 0): 1 degrees Gardner
colour ([3]; 0.1 p.c.r., 0 min): 2 Gardner
colour ([3]; 0.1 p.c.r., 2 min): 2 Gardner
colour ([3]; 0.1 p.c.r., 4 min): 2 Gardner
colour ([3]; 0.1 p.c.r., 6 min): 3 Gardner
colour ([3]; 0.1 p.c.r., 8 min): 4 Gardner
colour ([3]; 0.1 p.c.r., 10 min): 11 Gardner
colour ([3]; 0.1 p.c.r., 12 min): 13 Gardner
colour ([3]; 0.2 p.c.r., 0 min): 1 Gardner
colour ([3]; 0.2 p.c.r., 2 min): 1 Gardner
colour ([3]; 0.2 p.c.r., 4 min): 1 Gardner
colour ([3]; 0.2 p.c.r., 6 min): 2 Gardner
colour ([3]; 0.2 p.c.r., 8 min): 3 Gardner and 2 Gardner
colour ([3]; 0.2 p.c.r., 10 min): 4 Gardner and 5 Gardner
colour ([3]; 0.2 p.c.r., 12 min): 12 Gardner and 9 Gardner
colour ([3]; 0.2 p.c.r., 14 min): 15 Gardner
colour ([3]; 0.2 p.c.r., time printed 1 min): 1 Gardner
colour ([3]; Ex. 10, 0.3 part, 0 min): 1 Gardner
colour ([3]; Ex. 10, 0.3 part, 3 min): 2 Gardner and 1 Gardner
colour ([3]; Ex. 10, 0.3 part, 6 min): 2 Gardner
colour ([3]; Ex. 10, 0.3 part, 15 min): 16 Gardner and 17 Gardner and 14 Gardner
colour ([3]; Ex. 10, 0.3 part, 18 min): B
colour ([3]; x = 0.1 to 0.3 p.c.r., 0 min): 1 Gardner
colour ([3]; x = 0.1 to 0.3 p.c.r., 3 min): 1 Gardner
colour ([3]; x = 0.1 to 0.3 p.c.r., 6 min): 2 Gardner
colour ([3]; x = 0.1 to 0.3 p.c.r., 9 min): 4 Gardner
colour ([3]; x = 0.1 to 0.3 p.c.r., 12 min): 11 Gardner and 10 Gardner
colour ([3]; x = 0.1 to 0.3 p.c.r., 15 min): 14 Gardner
colour ([4]; 0.3 part, 0 min): 1 Gardner
colour ([4]; 0.3 part, 6 min): 1 Gardner
colour ([4]; 0.3 part, 30 min): 14 Gardner
colour ([4]; 0.3 part, 33 min): 14 Gardner
colour [4, 6]: 1 Gardner
colour [4, 7]: 2 Gardner
colour [4, 8]: 3 Gardner
colour [4, 9]: 10 Gardner
colour [4, 10]: 13 Gardner
colour [4, 11]: 13 Gardner
colour [4, 12]: 13 Gardner
colour [4, 13]: 14 Gardner
colour [4, 14]: 16 Gardner
colour ([4]; equimolecular, 1.55×1^-3 mole, 39 min): 16 Gardner
colour ([4]; equimolecular, 1.55×1^-3 mole, 42 min): B

CC1=C(C(=O)OC2CCCCC2)CC(C(=O)OC2CCCCC2)=C(C)N1 [L.28508]
Coloration ([2]; Test B, after 24 hours): 2 degrees Gardner
Coloration ([2]; Test B, time 0): 1 degrees Gardner
colour ([3]; Ex. 10, 0.3 part, 0 min): 1 Gardner
colour ([3]; Ex. 10, 0.3 part, 3 min): 1 Gardner
colour ([3]; Ex. 10, 0.3 part, 6 min): 3 Gardner
colour ([3]; Ex. 10, 0.3 part, 9 min): 5 Gardner
colour ([3]; Ex. 10, 0.3 part, 12 min): 14 Gardner
colour ([3]; Ex. 10, 0.3 part, 15 min): B
colour ([4]; 0.3 part, 0 min): 1 Gardner
colour ([4]; 0.3 part, 6 min): 1 Gardner
colour ([4]; 0.3 part, 12 min): 3 Gardner
colour ([4]; 0.3 part, 18 min): 5 Gardner
colour ([4]; 0.3 part, 24 min): 8 Gardner
colour ([4]; 0.3 part, 27 min): 13 Gardner
colour ([4]; 0.3 part, 30 min): 16 Gardner
colour ([4]; 0.3 part, 33 min): 18 Gardner
colour ([4]; 0.3 part, 36 min): 18 Gardner
colour ([4]; 0.3 part, 39 min): 18 Gardner
colour ([4]; 0.3 part, 42 min): 18 Gardner

COC(=O)C1=C(C)NC(C)=C(C(=O)OC)C1 [L.28504, 2,6-Dimethyl-3,5-dicarbomethoxy-1,4-dihydropyridine]
Coloration ([2]; Test A, after 24 hours): 1 degrees Gardner
Coloration ([2]; Test A, time 0): 1 degrees Gardner
colour ([3]; Ex. 10, 0.3 part, 0 min): 1 Gardner
colour ([3]; Ex. 10, 0.3 part, 3 min): 1 Gardner
colour ([3]; Ex. 10, 0.3 part, 6 min): 2 Gardner and 1 Gardner
colour ([3]; Ex. 10, 0.3 part, 9 min): 3 Gardner and 2.5 Gardner
colour ([3]; Ex. 10, 0.3 part, 18 min): B
colour ([4]; 0.3 part, 0 min): 1 Gardner
colour ([4]; 0.3 part, 6 min): 1 Gardner
colour [4, 6]: 1 Gardner
colour [4, 7]: 1 Gardner
colour [4, 8]: 1 Gardner
colour [4, 9]: 4 Gardner
colour [4, 10]: 5 Gardner
colour [4, 11]: 8 Gardner
colour [4, 12]: 11 Gardner
colour [4, 13]: 15 Gardner
colour [4, 14]: B
Coloration ([1]; 0.05, 80 min): B
Coloration ([1]; 0.1, 80 min): B
Coloration ([1]; 0.2, 80 min): B
Coloration ([1]; 0.3, 80 min): B
Coloration ([1]; 0.4, 80 min): B
Coloration ([1]; 0.5, 80 min): B
Coloration ([1]; last pair, concentration not given, 70 min): B
Adhesion time [5]: 12 min

Where “and” joins values, the source holds several entries; their conditions need not be identical. Equal entries are not always repeated.
